Results published in article PMC4260845.
These are yes or no findings as the source states them, for the method shown. Where a sequence is shown, tags or fusion partners need not be part of it.

Tests used:
[1] = target: Starmaker-like protein (Stm-l) from medaka (Oryzias latipes), recombinant, non-tagged (Oryzias latipes (medaka)) (UniProt C5J3N6); assay: SEC; Superdex 200 10/300 GL, buffer A (20 mM Tris, 150 mM NaCl, pH 7.5), room temperature, 0.5 ml/min; Stm-l loaded at 0.1, 0.5 or 2.5 mg/mL in 0.2 mL; both purified
[2] = target: Starmaker-like protein (Stm-l) from medaka (Oryzias latipes), recombinant, non-tagged (Oryzias latipes (medaka)) (UniProt C5J3N6); assay: AUC; sedimentation velocity, 20°C, 40 000 rpm, buffer A; Stm-l at 0.40, 1.22 or 2.50 mg/mL; c(s) analysis with SEDFIT; both purified

B1: Starmaker-like protein (Stm-l) from medaka (Oryzias latipes), recombinant, non-tagged (protein, UniProt C5J3N6 1-361)
chain: MGSMKNSDDESKETSKAAAEVKTTEKTAENPDATDEPSEETSEGEELDSADDSQDSTDEPSQETAETKETESADKSEDKSSAAEETDEEASDSADVSEAVSESEETSSSPEVRGSKTNNTEDKISFEEVEDQSDEMSMDKDKKSEESSMRPTDSVKGAEDSASLESDEMFEESDEQSEEEKSTSAPTSEDAGADSEDESDQSSQDLSKEDDSKGQDAVQSQDDGTTSKADLMDDDLGAEDDKDEEKEEAADGDAKDLGVMIEKDEEEKVEVNKEQVDSNEDQPAKENSDEKDEADKEKDASDKKDLSMSEEEPDWEEEMGMDDSLEEEEKANKKTSDEKGSFDETTSDQLDQPDNSTPPADAAM
binding [1]: no binding (tested: 0.1, 0.5 and 2.5 mg/mL) | binding [2]: no binding (tested: 0.40, 1.22 and 2.50 mg/mL)
